Assay results: PMC11973282 (Frontiers in Oncology, 2025)

Assay: general procedure: Fmoc solid-phase peptide synthesis; Wong's polymer; 1,3-Diisopropylcarbodiimide with hydroxybenzotriazole
Details: whole synthesis

## TKDNNLLGRFELSG-Beta-Ala-RGD
  isolated yield: ≥90%
RP-HPLC, Waters Delta-Pak analytical column
  final purity (method not given): ≥90%
